Binding data for three molecules are collected here from patent US7655425.

By UniProt entry, the sequences of proteins in these tests, tags left out. Residues count along the entry.
UniProt P10147, residues 24-92: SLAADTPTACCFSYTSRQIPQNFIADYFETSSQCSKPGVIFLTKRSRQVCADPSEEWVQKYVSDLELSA

Experiment in all cases: equilibrium competition radioligand binding on transfected HL-60 cells
The target in assay [1] is T1, human CC-CKR-3 (K5.5) (human) (UniProt P51679).
T1 sequence: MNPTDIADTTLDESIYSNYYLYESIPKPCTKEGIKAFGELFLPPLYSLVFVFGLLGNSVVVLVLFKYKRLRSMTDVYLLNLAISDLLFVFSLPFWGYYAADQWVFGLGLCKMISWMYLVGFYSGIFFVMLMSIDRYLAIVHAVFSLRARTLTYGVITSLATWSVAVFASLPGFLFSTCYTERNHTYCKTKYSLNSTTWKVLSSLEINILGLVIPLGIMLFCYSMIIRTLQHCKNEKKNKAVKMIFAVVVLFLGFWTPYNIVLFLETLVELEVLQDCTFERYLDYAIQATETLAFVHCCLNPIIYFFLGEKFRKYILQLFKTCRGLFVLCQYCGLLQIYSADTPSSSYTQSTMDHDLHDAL

A further assay has as its target T2, murine CC-CKR-3 (murine) (UniProt P51680).
T2 sequence (looked up): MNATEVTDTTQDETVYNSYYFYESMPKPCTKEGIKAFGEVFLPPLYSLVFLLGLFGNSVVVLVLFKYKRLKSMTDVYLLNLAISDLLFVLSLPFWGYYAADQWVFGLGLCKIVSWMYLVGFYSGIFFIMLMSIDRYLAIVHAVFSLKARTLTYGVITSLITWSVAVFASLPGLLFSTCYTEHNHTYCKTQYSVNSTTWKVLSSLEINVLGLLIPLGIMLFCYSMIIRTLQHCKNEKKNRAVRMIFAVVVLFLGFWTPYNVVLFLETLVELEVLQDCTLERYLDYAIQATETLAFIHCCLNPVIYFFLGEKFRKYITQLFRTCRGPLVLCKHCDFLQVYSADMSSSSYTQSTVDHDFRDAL

Assay [2] has as its target T3, human CC-CKR-3 (K5.5) (human), P51679.
T3 chain: T1 sequence
As to conditions: remark: other sources report otherwise.

Results are given in words; binding and its absence hold for the method and conditions named. Some binding calls cover weakened binding; strength is not graded here.

In the case of “MIP-1α (Macrophage inflammatory polypeptide-1α) (from UniProt P10147 24-92) (ligand)”, the binding result (in assay [1]; with murine CC-CKR-3 (murine)) was “binds” in each case.
For the molecule “RANTES (Raised on Activation, Normal T-cell derived and Secreted) (from UniProt P13501 24-91) (ligand)”, the binding entry with murine CC-CKR-3 (murine) was “binds”.

B1: RANTES (Raised on Activation, Normal T-cell derived and Secreted), P13501 24-91 (ligand, UniProt P13501 24-91, looked up)
chain: SPYSSDTTPCCFAYIARPLPRAHIKEYFYTSGKCSNPAVVFVTRKNRQVCANPEKKWVREYINSLEMS
On to B1, for which the binding result in assay [2] was “binds”.
